For two substances, binding results are on record in PMC2565686.

The chains behind the UniProt entries cited, without tags or fusion partners.
UniProt Q9Y6R4: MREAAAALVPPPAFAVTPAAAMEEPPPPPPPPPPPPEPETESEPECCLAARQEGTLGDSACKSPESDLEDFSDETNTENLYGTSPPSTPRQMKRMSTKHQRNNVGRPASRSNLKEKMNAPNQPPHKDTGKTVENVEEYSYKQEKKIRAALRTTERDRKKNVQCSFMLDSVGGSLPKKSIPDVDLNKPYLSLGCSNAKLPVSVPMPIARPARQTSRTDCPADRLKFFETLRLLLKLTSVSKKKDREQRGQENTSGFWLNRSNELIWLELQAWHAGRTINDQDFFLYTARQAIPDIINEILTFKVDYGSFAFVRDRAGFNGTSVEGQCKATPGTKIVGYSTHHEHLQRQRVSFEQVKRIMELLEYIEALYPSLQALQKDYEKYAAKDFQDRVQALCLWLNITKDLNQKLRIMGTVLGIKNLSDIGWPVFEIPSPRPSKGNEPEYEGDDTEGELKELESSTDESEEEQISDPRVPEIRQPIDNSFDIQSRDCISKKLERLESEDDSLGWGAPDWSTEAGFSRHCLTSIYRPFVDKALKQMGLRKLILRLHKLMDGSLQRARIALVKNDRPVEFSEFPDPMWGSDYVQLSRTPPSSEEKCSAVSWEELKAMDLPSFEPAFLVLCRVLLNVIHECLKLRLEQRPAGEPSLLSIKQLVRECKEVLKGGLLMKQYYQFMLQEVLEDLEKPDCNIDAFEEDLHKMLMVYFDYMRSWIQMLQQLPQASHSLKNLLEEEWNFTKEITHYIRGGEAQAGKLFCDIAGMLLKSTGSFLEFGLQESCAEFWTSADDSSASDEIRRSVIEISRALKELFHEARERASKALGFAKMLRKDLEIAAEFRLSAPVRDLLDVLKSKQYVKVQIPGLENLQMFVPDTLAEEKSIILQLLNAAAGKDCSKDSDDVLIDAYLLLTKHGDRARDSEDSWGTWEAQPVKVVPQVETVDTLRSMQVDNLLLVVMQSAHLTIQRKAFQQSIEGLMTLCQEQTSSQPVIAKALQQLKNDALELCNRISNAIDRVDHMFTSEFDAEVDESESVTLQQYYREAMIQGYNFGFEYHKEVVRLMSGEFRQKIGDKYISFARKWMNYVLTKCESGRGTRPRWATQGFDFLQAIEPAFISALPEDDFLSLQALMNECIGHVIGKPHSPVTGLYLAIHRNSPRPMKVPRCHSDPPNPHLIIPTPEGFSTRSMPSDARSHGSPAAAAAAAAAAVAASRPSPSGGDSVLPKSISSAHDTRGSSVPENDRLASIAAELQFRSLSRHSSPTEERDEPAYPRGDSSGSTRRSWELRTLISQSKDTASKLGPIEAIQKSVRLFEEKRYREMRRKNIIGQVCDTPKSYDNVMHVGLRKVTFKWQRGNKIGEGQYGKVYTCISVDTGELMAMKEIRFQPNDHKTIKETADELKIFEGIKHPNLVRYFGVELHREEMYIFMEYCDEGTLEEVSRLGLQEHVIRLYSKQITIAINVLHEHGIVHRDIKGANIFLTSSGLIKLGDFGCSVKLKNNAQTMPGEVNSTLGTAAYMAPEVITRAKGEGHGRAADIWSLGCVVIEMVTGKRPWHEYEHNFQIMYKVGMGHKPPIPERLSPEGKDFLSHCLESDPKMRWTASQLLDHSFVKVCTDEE
UniProt Q16539: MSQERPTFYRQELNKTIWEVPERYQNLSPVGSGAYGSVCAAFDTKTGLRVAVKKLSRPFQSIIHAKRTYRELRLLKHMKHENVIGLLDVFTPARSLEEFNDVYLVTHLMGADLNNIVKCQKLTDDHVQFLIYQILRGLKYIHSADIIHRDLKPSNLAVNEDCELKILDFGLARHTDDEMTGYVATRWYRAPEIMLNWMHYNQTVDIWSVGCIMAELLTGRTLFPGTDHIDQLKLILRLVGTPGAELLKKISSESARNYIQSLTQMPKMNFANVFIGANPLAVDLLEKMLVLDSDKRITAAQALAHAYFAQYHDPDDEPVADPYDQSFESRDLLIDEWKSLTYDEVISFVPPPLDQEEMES

No constants are given. Whether binding was seen depends on the method and setting. Binding seen in cells or lysates may run through a third protein. Some entries that bind do so weakly or less than the wild type.

The assay addresses T1, ING1b (pCI-ING1b plasmid) (human) (UniProt Q9UK53).
T1 sequence: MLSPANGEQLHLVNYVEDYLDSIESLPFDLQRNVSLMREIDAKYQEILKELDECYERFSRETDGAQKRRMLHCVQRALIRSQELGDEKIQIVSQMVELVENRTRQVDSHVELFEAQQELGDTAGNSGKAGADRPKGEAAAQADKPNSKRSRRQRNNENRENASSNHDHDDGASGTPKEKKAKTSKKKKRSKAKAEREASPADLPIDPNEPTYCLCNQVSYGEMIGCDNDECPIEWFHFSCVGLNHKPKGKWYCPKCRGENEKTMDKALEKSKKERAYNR
The assay is described as follows: co-IP; HEK293 cells transiently transfected with the indicated constructs, lysed in RIPA buffer, immunoprecipitated with anti-ING1, immunoblotted with anti-p38MAPK or anti-MEKK4; anti-GST immunoprecipitate as negative control. A general note: A western blot detects proteins with antibodies after separation by electrophoresis.

Turning to “overexpressed MEKK4 (from UniProt Q9Y6R4 1-1608) (enzyme)”, the binding result is listed as “binds”. Regarding “overexpressed p38MAPK (from UniProt Q16539 1-360) (enzyme)”, the binding result is listed as “binds”.
